Data source: PubChem BioAssay AID504744 (Drosophila RNAi Screening Center, 2011)
Screen: 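Find genes whose loss alters insulin-driven dAkt phosphorylation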 (primary screen). Cells: Drosophila Kc167 cells. Reagents: long dsRNA against Drosophila genes, 250 ng dsRNA per well of a 384-well plate. Timing: 3 days of knock-down, then overnight serum-free starvation before stimulation. Challenge: bovine insulin at 387 nM for 10 minutes after 12 h without serum. Measured: 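In-cell antibody fluorescence for phospho-dAkt in each well over DNA-dye signal, with log2 residuals expressed as z-scores adjusted for cell count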. Call rule: 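Hit in the insulin screen when the two-replicate mean z-score is more extreme than plus or minus 2.5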.
In all, the deposit lists about 23,000 reagents; this is a random part of those with a known target gene and a result. In the full data, 98 (0.43%) are marked active. 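Only hit calls are given; the phospho-dAkt signals, z-scores and hit direction were not deposited.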 A plus sign joins genes that one reagent is predicted to hit. Reagent sequences are not shown.

| target | PubChem SID | outcome |
| --- | --- | --- |
| hbn (homeobrain) | SID104183874 | inactive |
| hbn (homeobrain) | SID104184030 | inactive |
| hbn (homeobrain) | SID104184031 | inactive |
| hbn (homeobrain) | SID104201907 | inactive |
| mbm + CG11555 | SID104180107 | inactive |
| CG4645 | SID104199699 | inactive |
| CG9449 | SID104190865 | inactive |
| Slik (Sterile20-like kinase) | SID104184263 | inactive |
| Fum1 (Fumarase 1) | SID104198136 | inactive |
| Cpr100A (Cuticular protein 100A) | SID104194257 | inactive |
| CG1598 | SID104186390 | inactive |
| Rnb (R and B) | SID104196117 | inactive |
| CG31082 (retired record) | SID104193567 | inactive |
| CG15254 | SID104181662 | inactive |
| CG15254 | SID104201432 | inactive |
| Nepl13 (Neprilysin-like 13) | SID104195424 | inactive |
| CG17147 | SID104190041 | inactive |
| Pli (Pellino) | SID104196584 | inactive |
| CG4377 | SID104184259 | inactive |
| AsnS (Asparagine synthetase) | SID104191260 | inactive |
| CG13814 (retired record) | SID104189861 | inactive |
| slim (scruin like at the midline) | SID104186713 | inactive |
| bark (bark beetle) | SID104180427 | inactive |
| CG32266 | SID104187854 | inactive |
| Gld2 (GLD2 poly(A) polymerase) | SID104195655 | inactive |
| Srr (Serine racemase) | SID104196174 | inactive |
| CG13022 | SID104189694 | inactive |
| CG13244 | SID104201334 | inactive |
| mus201 + Chrac-14 | SID104183360 | inactive |
| mus201 + Chrac-14 | SID104183367 | inactive |
| CG17770 + Acam | SID104193902 | inactive |
| CG17770 + Acam | SID104195056 | inactive |
| lncRNA:bxd (bithoraxoid) | SID104192968 | inactive |
| Cog3 (Component of oligomeric golgi complex 3) | SID104180377 | inactive |
| mRpL18 (mitochondrial ribosomal protein L18) | SID104185934 | inactive |
| CG7916 | SID104181693 | inactive |
| Keap1 | SID104195320 | inactive |
| Rgl (Ral guanine nucleotide dissociation stimulator-like) | SID104191059 | inactive |
| CG4483 | SID104190218 | inactive |
| rump (rumpelstiltskin) | SID104196272 | inactive |
| COX8 (Cytochrome c oxidase subunit 8) | SID104191606 | inactive |
| CG13113 | SID104182003 | inactive |
| Cyt-c1 (Cytochrome c1) | SID104190239 | inactive |
| CG11356 | SID104199193 | inactive |
| Cpr47Ec (Cuticular protein 47Ec) | SID104187124 | inactive |
| CG14464 | SID104187552 | inactive |
| plx (pollux) | SID104192052 | inactive |
| plx (pollux) | SID104192177 | inactive |
| plx (pollux) | SID104202075 | inactive |
| CG13670 | SID104189821 | inactive |
| CG12009 | SID104188009 | inactive |
| Tsp66E (Tetraspanin 66E) | SID104189475 | inactive |
| CG11898 | SID104194224 | inactive |
| CG42594 | SID104197845 | inactive |
| CG42594 | SID104198200 | inactive |
| Indy-2 + CG33934 | SID104195477 | inactive |
| Indy-2 + CG33934 | SID104195478 | inactive |
| Amy-d + Amy-p | SID104201034 | inactive |
| CG1750 | SID104195032 | inactive |
| frm (farmer) | SID104189545 | inactive |
| CG31752 | SID104202016 | inactive |
| Lamtor5 (Late endosomal/lysosomal adaptor, MAPK and MTOR activator 5) | SID104198283 | inactive |
| msk (moleskin) | SID104191132 | inactive |
| CG11309 | SID104191442 | inactive |
| gol (goliath) | SID104184481 | inactive |
| Gr39b (Gustatory receptor 39b) | SID104181640 | inactive |
| ItgaPS4 (Integrin alphaPS4 subunit) | SID104186422 | inactive |
| CG32170 | SID104189244 | inactive |
| CG30485 | SID104186168 | inactive |
| Hex-C (Hexokinase C) | SID104186871 | inactive |
| SmydA-5 (SET and MYND domain containing, arthropod-specific, member 5) | SID104184659 | inactive |
| Lpt (Lost PHDs of trr) | SID104184083 | inactive |
| Lpt (Lost PHDs of trr) | SID104184307 | inactive |
| Myc | SID104198554 | inactive |
| LpR2 (Lipophorin receptor 2) | SID104193518 | inactive |
| LpR2 (Lipophorin receptor 2) | SID104193520 | inactive |
| LpR2 (Lipophorin receptor 2) | SID104195447 | inactive |
| LpR2 (Lipophorin receptor 2) | SID104195450 | inactive |
| CG7611 | SID104191632 | inactive |
| CG10591 | SID104189540 | inactive |
| CG13324 | SID104186153 | inactive |
| Atg101 (Autophagy-related 101) | SID104199812 | inactive |
| VhaPPA1-2 (Vacuolar H[+] ATPase PPA1 subunit 2) | SID104195968 | inactive |
| Efhc1.1 (EF-hand domain containing 1.1) | SID104199927 | inactive |
| BomS5 (Bomanin Short 5) | SID104201815 | inactive |
| Su(H) (Suppressor of Hairless) | SID104183237 | inactive |
| Or67a (Odorant receptor 67a) | SID104191032 | inactive |
| CG14330 | SID104194601 | inactive |

Records above whose target name starts with F or f:
| target | PubChem SID | outcome |
| --- | --- | --- |
| Fum1 (Fumarase 1) | SID104198136 | inactive |
| frm (farmer) | SID104189545 | inactive |

The results go on:
| target | PubChem SID | outcome |
| --- | --- | --- |
| CG12608 | SID104199264 | inactive |
| cid (centromere identifier) | SID104185221 | inactive |
| cid (centromere identifier) | SID104187384 | inactive |
| CG10147 | SID104189498 | inactive |
| EMC7 (ER membrane protein complex subunit 7) | SID104186954 | inactive |
| Gr22d (retired record) | SID104201343 | inactive |
| CG31051 | SID104194826 | inactive |
| CG11970 | SID104193949 | inactive |
| CG16772 | SID104182308 | inactive |
| CG13784 | SID104180766 | inactive |
| CG13784 | SID104182079 | inactive |
| GNBP3 (Gram-negative bacteria binding protein 3) | SID104190962 | inactive |
| TTLL6B (Tubulin tyrosine ligase-like 6B) | SID104195724 | inactive |
| CROT (Carnitine O-octanoyltransferase) | SID104194310 | inactive |
| CROT (Carnitine O-octanoyltransferase) | SID104194311 | inactive |
| CG11906 | SID104185888 | inactive |
| CG33998 | SID104185539 | inactive |
| CG12071 | SID104194263 | inactive |
| Targ3 (Terminal ADP-ribose protein glycohydrolase 3) | SID104191263 | inactive |
| kat80 (katanin 80) | SID104200136 | inactive |
| kat80 (katanin 80) | SID104200137 | inactive |
| hpRNA:CR18854 (hairpin RNA:CR18854) | SID104182494 | inactive |
| Vps53 (Vacuolar protein sorting 53) | SID104180387 | inactive |
| CG15322 | SID104200472 | inactive |
| nkd (naked cuticle) | SID104191168 | inactive |
| CG44014 | SID104194787 | inactive |
| CG1979 | SID104192287 | inactive |
| Ir56a (Ionotropic receptor 56a) | SID104185568 | inactive |
| CG10973 | SID104189605 | inactive |
| RNF220 (ring finger protein 220) | SID104195444 | inactive |
| fat-spondin | SID104187409 | inactive |
| CG12011 | SID104188011 | inactive |
| CG42331 | SID104194425 | inactive |
| CG42331 | SID104195918 | inactive |
| numb | SID104183376 | inactive |
| MBD-like (Methyl-CpG binding domain protein-like) | SID104196788 | inactive |
| CG33332 | SID104195296 | inactive |
| CG34331 | SID104200471 | inactive |
| arg (arginase) | SID104198529 | inactive |
| dmt (dalmatian) | SID104196724 | inactive |
| inaF-A | SID104199452 | inactive |
| CG12708 | SID104199282 | inactive |
| CG43737 | SID104199401 | inactive |
| hdm (hold'em) | SID104197805 | inactive |
| CG42394 + CG6567 | SID104192613 | inactive |
| CG17159 + CG17162 | SID104200691 | inactive |
| CG17159 + CG17162 | SID104200692 | inactive |
| CG31229 | SID104193101 | inactive |
| CG14196 | SID104199343 | inactive |
| CG14634 | SID104197736 | inactive |
| Hmr (Hybrid male rescue) | SID104197532 | inactive |
| CG42812 + CG42811 | SID104195159 | inactive |
| CG42812 + CG42811 | SID104195160 | inactive |
| DIP-eta (Dpr-interacting protein eta) | SID104182134 | inactive |
| ND5 (retired record) | SID104201073 | inactive |
| TotA (Turandot A) | SID104193240 | inactive |
| ReepA (Receptor expression enhancing protein A) | SID104184364 | inactive |
| ReepA (Receptor expression enhancing protein A) | SID104201931 | inactive |
| CtsK1 (Cathepsin K1) | SID104188534 | inactive |
| ERp44 (Endoplasmic reticulum protein 44) | SID104200007 | inactive |
| CG12880 | SID104194360 | inactive |
| mwh (multiple wing hairs) | SID104188174 | inactive |
| CG10919 | SID104194075 | inactive |
| CG33648 | SID104181179 | inactive |
| Adf1 (Adh transcription factor 1) | SID104184733 | inactive |
| Adf1 (Adh transcription factor 1) | SID104184755 | inactive |
| AdipoR (Adiponectin receptor) | SID104195559 | inactive |
| Ibf1 (Insulator binding factor 1) | SID104196211 | inactive |
| dysf (dysfusion) | SID104194321 | inactive |
| dysf (dysfusion) | SID104194687 | inactive |
| dysf (dysfusion) | SID104194688 | inactive |
| dysf (dysfusion) | SID104194689 | inactive |
